Data as given in patent US11248022B2, “Glypican-3 peptide reagents and methods” (THE REGENTS OF THE UNIVERSITY OF MICHIGAN, priority 2017, dated 2022).

Columns and labels:
Hep3B xenograft tumors = test: Ex vivo confocal validation on Hep3B xenograft sections and normal liver; set-up: species or system mice; conditions: mouse xenograft sections
From the text: The specimens were also sectioned for collection of confocal images to perform microscopic validation of peptide binding ex vivo.

human HCC = test: Immunofluorescence on human liver biopsies ex vivo
From the text: Specific peptide binding to human HCC was confirmed on patient biopsies (n=41) ex vivo from University of Michigan Hospital. […] Antibody staining of the same tissue confirmed minimal GPC3 expression, FIG. 15B. Binding by ALL*-Cy5.5 peptide and AF488-labeled anti-GPC3 antibody co-localized on normal liver specimen with Pearson's correlation coefficient of p=0.62, FIG. 15C. Co-stained regions were also imaged at 40×, FIG. 15D and 100× (dashed box in Panel D) magnifications, FIG. 15E.
Quantitative comparison of ALL*-Cy5.5 binding to human HCC with normal liver, adenoma and cirrhosis tissue was summarized in FIG. 15U.

ALLANHEELFQT (SEQ ID NO: 1) peptide labeled with Cy5.5 via a GGGSK linker on the C-terminus (C-terminal GGGSK linker with Cy5.5) [ALL*-Cy5.5]
area under curve AUC (ROC) (Hep3B xenograft tumors; HCC from normal liver): 0.98
sensitivity for distinguishing HCC from normal liver (ROC) (Hep3B xenograft tumors): 96.2%
specificity for distinguishing HCC from normal liver (ROC) (Hep3B xenograft tumors): 92.3%
area under curve AUC (ROC) (human HCC; HCC from all non-HCC tissue): 0.98
sensitivity (ROC) (human HCC; HCC from all non-HCC tissue): 93%
specificity (ROC) (human HCC; HCC from all non-HCC tissue): 88%
area under curve AUC (ROC) (human HCC; HCC from cirrhosis): 0.97
sensitivity (ROC) (human HCC; HCC from cirrhosis): 87%
specificity (ROC) (human HCC; HCC from cirrhosis): 100%
Pearson's correlation coefficient of co-localization with AF488-labeled anti-GPC3 antibody (human HCC; HCC tissue): 0.66
Pearson's correlation coefficient of co-localization with AF488-labeled anti-GPC3 antibody (human HCC; adenoma tissue): 0.63
Pearson's correlation coefficient of co-localization with AF488-labeled anti-GPC3 antibody (human HCC; cirrhotic liver tissue): 0.57
Pearson's correlation coefficient of co-localization with AF488-labeled anti-GPC3 antibody (human HCC; normal liver specimen): 0.62
